# Test results taken from US20150031754.
# Chains of the proteins cited; added tags and fusions are not shown.
# UniProt P03372, whole entry: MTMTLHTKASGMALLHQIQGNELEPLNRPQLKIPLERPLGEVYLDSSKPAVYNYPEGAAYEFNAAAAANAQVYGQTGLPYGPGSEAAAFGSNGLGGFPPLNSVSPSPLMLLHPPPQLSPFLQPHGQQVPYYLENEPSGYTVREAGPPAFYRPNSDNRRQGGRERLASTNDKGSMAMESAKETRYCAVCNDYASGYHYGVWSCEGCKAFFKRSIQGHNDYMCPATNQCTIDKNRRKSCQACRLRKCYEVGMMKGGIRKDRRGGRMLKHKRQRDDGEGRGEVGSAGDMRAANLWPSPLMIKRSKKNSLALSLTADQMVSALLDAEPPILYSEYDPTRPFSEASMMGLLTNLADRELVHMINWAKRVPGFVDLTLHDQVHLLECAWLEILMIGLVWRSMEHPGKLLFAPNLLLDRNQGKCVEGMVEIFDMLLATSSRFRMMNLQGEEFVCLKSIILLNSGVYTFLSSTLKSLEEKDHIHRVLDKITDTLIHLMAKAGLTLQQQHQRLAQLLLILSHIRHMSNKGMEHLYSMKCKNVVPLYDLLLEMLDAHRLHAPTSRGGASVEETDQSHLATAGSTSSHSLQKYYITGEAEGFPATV
# Experiments:
# [1] = target: Endogenous hERα in MCF7 cells (Homo sapiens) (UniProt P03372); assay: activity in cells; details: MCF7 dual luciferase, protein in cells, dose not given here
# [2] = target: Human estrogen receptor alpha (hERα), full-length, unliganded (Homo sapiens) (UniProt P03372); assay: EMSA; details: 25 nM hERα; lower affinity than sB63; purified recombinant protein; label: 32P internal; variant of AptER-1(65nt) (sB63)
# [3] = target: SNAP-hERα (Homo sapiens) (UniProt P03372); assay: pull-down; details: protein in cells; protein details: N-terminal SNAP-tag, expressed in HeLa cells; variant of AptER-1x2(138nt) dimer
sequence,measurement,setting,value
GAGAAUUCAACUGCCAUCUAGGCCACAGCCGGCGGUCGAACACCAGAGGGCGACUUUGGGUAGUCGAGUAUUAAGUACUACAAGCUUCUGGACUCUU [AptER-4 (97nt expressed)],functional effect of the aptamer,"[1]; range for three aptamers, least potent, variant of AptER-4",active
GGGCAGAGGCACCGCGAACACAACGCAAGACAGAGUGACGACAAGAGCACUACAAGCUUCUGCCC [sB30 (65nt truncated clone B30)],binding result,[2],binds more weakly
GCGUGACGGGCACCGCGAACAAAACGCAAGACAGAGUGCCGACAAGAGCACUACAAGCCCGUCCAUACUCCGGCACCGCGAACAAAACGCAAGACAGAGUGCCGACAAGAGCACUAACAGCCGGAGGCGCUU [AptER-1x2 (expressed dimer)],functional effect of the aptamer,"[1]; range for three aptamers from pSUPER/pSHAG-MAGIC, most potent of the three, variant of AptER-1x2(138nt) dimer",active
same,binding signal (fold over SNAP control),[3],292
GAGAGGCACCGCGAACAAAACGCAAGACAGAGUGCCGACAAGAGCACUACAAGCCUCUCUU [AptER-1x1 (61nt expressed)],functional effect of the aptamer,"[1]; range for three aptamers, second most potent, variant of AptER-1 (clone B63)",active

# For some assays here: A weaker result is weaker than the reference pair of the same experiment. For some assays here: The exact form of at least one protein or probe is not confirmed. For some assays here: Where cells or extracts were used, other partners may take part. For some assays here: The direction of at least one scale is not stated here.
